Source: US7358402B2, “Reduced coenzyme Q10 crystal with excellent stability and composition containing said reduced coenzyme Q10 crystal” (Kaneka Corporation, priority 2003, dated 2008)
At least one structure is not confirmed: it was looked up by name or label, or the drawing left a doubt.

Assay: Storage stability of reduced coenzyme Q10 crystals in air at 30° C., shielded from light (HPLC weight ratio)
Assay type: physicochemical
Conditions: after storage for 4 days in air at 30° C., starting ratio 99.3/0.7

| Structure (SMILES) | R: Weight ratio of reduced coenzyme Q10/oxidized coenzyme Q10 |
| --- | --- |
| COc1c(O)c(C)c(C/C=C(\C)CC/C=C(\C)CC/C=C(\C)CC/C=C(\C)CC/C=C(\C)CC/C=C(\C)CC/C=C(\C)CC/C=C(\C)CC/C=C(\C)CCC=C(C)C)c(O)c1OC [Crystals obtained in Comparative Example 1] [reduced coenzyme Q10] | 79.0/21.0 |
| COc1c(O)c(C)c(C/C=C(\C)CC/C=C(\C)CC/C=C(\C)CC/C=C(\C)CC/C=C(\C)CC/C=C(\C)CC/C=C(\C)CC/C=C(\C)CC/C=C(\C)CCC=C(C)C)c(O)c1OC [Crystals obtained in Example 1, reduced coenzyme Q10] | 96.6/3.4 |
| COc1c(O)c(C)c(C/C=C(\C)CC/C=C(\C)CC/C=C(\C)CC/C=C(\C)CC/C=C(\C)CC/C=C(\C)CC/C=C(\C)CC/C=C(\C)CC/C=C(\C)CCC=C(C)C)c(O)c1OC [Crystals obtained in Example 2, reduced coenzyme Q10] | 90.5/9.5 |
